Test results reported in US20040077080A1, “Compositions and methods for induction of proteins involved in xenobiotic metabolism” (priority 2000, published 2004).
For at least one compound, name, drawing or mass did not settle the structure.

Test system: AhR (dioxin response elements)
Test: DRE12-6 luciferase assay (HepG2 with dioxin response elements)

O=c1cc(-c2ccccc2)oc2cc(O)cc(O)c12 [chrysin]
AhR-mediated luciferase induction (in words): weak inducer | effect on TCDD-mediated luciferase induction (in words): effectively inhibited
